No constants are given. Whether binding was seen depends on the method and setting. In cells and extracts the contact can be indirect. Some binding calls cover weakened binding; strength is not graded here.
T1: MEIOC (mouse (endogenous in testis)) (UniProt A2AG06)
T1 sequence: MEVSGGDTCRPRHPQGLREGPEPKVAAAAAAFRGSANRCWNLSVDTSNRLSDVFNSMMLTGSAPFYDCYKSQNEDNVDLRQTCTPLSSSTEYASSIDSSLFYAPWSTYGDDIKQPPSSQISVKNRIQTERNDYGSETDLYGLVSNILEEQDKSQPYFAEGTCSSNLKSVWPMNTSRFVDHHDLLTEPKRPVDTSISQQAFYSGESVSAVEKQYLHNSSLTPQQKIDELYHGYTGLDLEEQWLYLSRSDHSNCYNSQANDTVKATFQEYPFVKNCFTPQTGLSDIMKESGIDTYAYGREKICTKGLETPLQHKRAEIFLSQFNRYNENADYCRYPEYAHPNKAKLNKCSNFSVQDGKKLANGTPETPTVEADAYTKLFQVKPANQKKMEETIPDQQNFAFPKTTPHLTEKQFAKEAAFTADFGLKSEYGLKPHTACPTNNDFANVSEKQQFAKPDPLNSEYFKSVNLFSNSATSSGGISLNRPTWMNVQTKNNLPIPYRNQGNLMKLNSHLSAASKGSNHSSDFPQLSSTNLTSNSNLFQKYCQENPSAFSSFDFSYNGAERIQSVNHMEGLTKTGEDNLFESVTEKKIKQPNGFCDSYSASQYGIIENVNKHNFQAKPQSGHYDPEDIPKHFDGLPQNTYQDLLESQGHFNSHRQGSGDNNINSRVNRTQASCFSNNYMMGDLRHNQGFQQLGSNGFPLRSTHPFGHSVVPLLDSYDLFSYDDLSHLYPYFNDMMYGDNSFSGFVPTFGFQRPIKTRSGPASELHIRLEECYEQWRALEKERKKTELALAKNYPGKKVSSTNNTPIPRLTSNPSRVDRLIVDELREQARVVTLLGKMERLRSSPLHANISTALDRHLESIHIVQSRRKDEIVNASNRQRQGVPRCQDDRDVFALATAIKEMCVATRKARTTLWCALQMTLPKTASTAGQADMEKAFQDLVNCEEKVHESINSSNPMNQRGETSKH

T2: YTHDC2 (mouse (endogenous in testis)) (UniProt B2RR83)
T2 sequence: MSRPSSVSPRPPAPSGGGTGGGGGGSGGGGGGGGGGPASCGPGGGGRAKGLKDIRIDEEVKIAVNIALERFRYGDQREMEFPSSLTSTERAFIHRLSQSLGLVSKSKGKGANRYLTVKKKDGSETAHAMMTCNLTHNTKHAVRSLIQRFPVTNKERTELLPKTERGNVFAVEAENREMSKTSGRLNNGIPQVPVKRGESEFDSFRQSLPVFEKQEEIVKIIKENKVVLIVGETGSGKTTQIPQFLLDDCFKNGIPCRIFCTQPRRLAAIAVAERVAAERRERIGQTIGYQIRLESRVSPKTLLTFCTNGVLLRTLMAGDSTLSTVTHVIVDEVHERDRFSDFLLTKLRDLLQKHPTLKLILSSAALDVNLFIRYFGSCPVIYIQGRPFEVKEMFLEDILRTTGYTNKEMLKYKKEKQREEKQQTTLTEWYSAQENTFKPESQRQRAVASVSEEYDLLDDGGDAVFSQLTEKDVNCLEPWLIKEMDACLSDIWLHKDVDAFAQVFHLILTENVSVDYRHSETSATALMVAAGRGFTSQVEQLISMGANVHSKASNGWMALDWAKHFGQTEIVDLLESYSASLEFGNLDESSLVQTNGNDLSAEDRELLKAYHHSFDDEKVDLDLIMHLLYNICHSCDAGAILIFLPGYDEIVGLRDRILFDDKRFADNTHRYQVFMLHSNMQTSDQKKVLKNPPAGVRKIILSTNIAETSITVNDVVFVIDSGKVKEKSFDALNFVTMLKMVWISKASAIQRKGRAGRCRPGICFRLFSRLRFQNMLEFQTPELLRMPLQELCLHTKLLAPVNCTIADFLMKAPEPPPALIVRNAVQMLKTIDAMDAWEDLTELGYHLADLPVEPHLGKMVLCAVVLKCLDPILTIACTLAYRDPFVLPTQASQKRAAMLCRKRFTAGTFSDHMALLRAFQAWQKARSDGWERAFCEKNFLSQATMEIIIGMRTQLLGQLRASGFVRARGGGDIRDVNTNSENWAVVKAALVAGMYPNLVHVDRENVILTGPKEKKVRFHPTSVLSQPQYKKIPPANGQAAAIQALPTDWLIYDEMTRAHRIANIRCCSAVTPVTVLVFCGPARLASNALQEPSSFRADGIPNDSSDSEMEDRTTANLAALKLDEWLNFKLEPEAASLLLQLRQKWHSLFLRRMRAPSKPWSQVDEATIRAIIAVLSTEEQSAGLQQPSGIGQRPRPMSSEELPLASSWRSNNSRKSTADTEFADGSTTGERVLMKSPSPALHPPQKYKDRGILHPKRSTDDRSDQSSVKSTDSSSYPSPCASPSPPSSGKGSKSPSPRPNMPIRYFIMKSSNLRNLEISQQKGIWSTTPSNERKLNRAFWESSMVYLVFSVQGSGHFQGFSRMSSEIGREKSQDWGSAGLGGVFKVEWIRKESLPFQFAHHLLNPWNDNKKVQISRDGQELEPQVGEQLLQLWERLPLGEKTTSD

B1: YTHDC2 (protein, UniProt B2RR83 1-1445)
chain: T2 sequence
B2: MEIOC (protein, UniProt A2AG06-1 1-965)
chain: T1 sequence

Columns and labels:
[1] = target: T1, MEIOC (mouse (endogenous in testis)); assay: co-IP; anti-MEIOC or anti-YTHDC2 antibody or IgG control on Protein G Dynabeads; adult (3-month-old C57BL/6) testis lysate; 25mM Tris-HCl pH7.5, 150mM NaCl, 1.5mM MgCl2, 1mM DTT, 0.4% Triton X-100, Benzonase nuclease; overnight at 4°C; immunoblotting
[2] = target: T2, YTHDC2 (mouse (endogenous in testis)); assay: as above

| Binder | binding [1] | binding [2] |
| --- | --- | --- |
| B1 | binds | – |
| B2 | – | binds |

From paper PMC5397071
